The values that follow come from patent US20170260284A1 (NATIONAL CANCER CENTER, published 2017).

These are yes or no findings as the source states them, for the method shown. Some entries that bind do so weakly or less than the wild type.

The target of assay [1] is T1, TMEM-180 protein in cancer cell culture supernatant or human plasma (human) (UniProt Q14CX5).
T1 sequence: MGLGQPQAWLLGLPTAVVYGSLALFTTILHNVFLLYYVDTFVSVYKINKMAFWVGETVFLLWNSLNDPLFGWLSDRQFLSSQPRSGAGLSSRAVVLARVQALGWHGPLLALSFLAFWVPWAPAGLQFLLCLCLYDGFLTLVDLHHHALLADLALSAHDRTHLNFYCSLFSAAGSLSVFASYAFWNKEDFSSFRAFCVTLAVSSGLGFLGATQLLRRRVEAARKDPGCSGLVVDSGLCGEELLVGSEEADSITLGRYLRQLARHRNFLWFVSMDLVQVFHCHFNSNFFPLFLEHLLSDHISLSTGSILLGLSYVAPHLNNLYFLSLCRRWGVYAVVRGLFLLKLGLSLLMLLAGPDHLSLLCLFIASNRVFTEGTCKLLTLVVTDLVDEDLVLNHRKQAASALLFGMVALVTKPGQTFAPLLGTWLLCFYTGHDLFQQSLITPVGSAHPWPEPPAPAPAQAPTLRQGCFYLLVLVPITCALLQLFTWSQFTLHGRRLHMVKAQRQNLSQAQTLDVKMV
Nature of the assay: direct ELISA, culture supernatant immobilized, IgM 98 at 10 ug/mL.

Assay [2] deals with T1, TMEM-180 protein in cancer cell culture supernatant or human plasma (human). Nature of the assay: direct ELISA, diluted human plasma immobilized, IgM 98 at 10 ug/mL.

B1: rat IgM antibody clone 98 (anti-TMEM-180 antibody clone 98) (antibody, V domains shown)
VH: QVQLKESGPGLVQPSQTLSLTCTVSGFSLTRYNVHWVRQPTGKGLEWMGVIWTGGSTDYNSALKSRLSISRDTSKSQVFLKMNSLQTEDIATYYCARDLGYWGQGVMVTVSS
VL: DIVMTQTPLSLSVAIGQSASISCKSSQSLKYRDGKTYLNWVFQSPGQSPKRLIYQVSKLDSGVPDRFSGTGSETDFTLKISRVEAEDLGVYYCCQGSYSPHTFGAGTKLELK
notes: Rat IgM from hybridoma, used as culture supernatant; also called IgM 98; Anti-TMEM-180 IgM rat antibody (clone 98)
With B1, the binding result in assay [1] and in assay [2] was “binds” throughout.
